Screen size: about 300,000 compounds; about 3,700 (1.2%) were called active. Inconclusive results, whose numbers are uncertain, are shown with a selection of clear calls. Calls follow the shape of the full dose curve; tested in HEK293 cells. A potency beside an inconclusive call is a rough fit, not a confirmed value.
Test: qHTS for Inhibitors of binding or entry into cells for Lassa Virus; also: nearly all actives have a fitted effect of over 50% in size
Conditions: Lassa virus pseudotype entry inhibition, cell reporter; series mostly up to 37.9 µM
For `COc1ccc(C(=O)COC(=O)C(CCSC)NC(=O)COc2ccccc2)c(OC)c1` (stereo unspecified), the Potency was inconclusive: 35.5 µM [inhibitor, single point].
In the case of `COc1cc(OC)c(NC(=O)CSc2cc(=O)n(C)c3ccc(Cl)cc23)cc1Cl`, the Potency is reported as “inactive”.
In the case of `CCOC(=O)N1CCN(C(=O)C(CC)n2nc(C)c3sc4ccccc4c3c2=O)CC1` (stereo unspecified), the Potency is reported as inconclusive: 12.6 µM [inhibitor, single point].
For `O=C(NCc1ccco1)c1ccc2c(c1)N(Cc1cccc(Cl)c1)C(=O)c1ccccc1S2=O` (stereo unspecified), the Potency was inconclusive: 8.91 µM [inhibitor, partial curve, poor fit].
In the case of `CCCC1(CC)C(=O)NC(=O)N=C1N` (stereo unspecified), the Potency is reported as “inactive”.
In the case of `OCCN1CCN(Cc2cc(Cl)c3cccnc3c2O)CC1`, the Potency is reported as inconclusive: 29.1 µM [inhibitor, single point].
For `NC(CCCCCP(=O)(O)O)C(=O)O` (stereo unspecified), the Potency was inconclusive: 0.0041 µM [activator, full curve, poor fit].
In the case of `NS(=O)(=O)c1ccc(Nc2nc(-c3ccc(O)cc3)cs2)cc1`, the Potency is reported as “inactive”.
With `COc1cc(C(=O)NC2(C(F)(F)F)NC(=O)N(CCCc3ccccc3)C2=O)cc(OC)c1OC` (stereo unspecified) the Potency was inconclusive: 35.5 µM [inhibitor, single point].
With `Cc1cc(C(=O)Nc2sc3c(c2C#N)CCCC3)no1` the Potency was inconclusive: 20.6 µM [inhibitor, partial curve, poor fit].
With `CCc1ccc(NC(=O)C2CCN(S(=O)(=O)c3ccc4c(c3)NC(=O)C(C)S4)CC2)cc1` (stereo unspecified) the Potency was inconclusive: 35.5 µM [inhibitor, partial curve, poor fit].
For `CN(C)S(=O)(=O)c1ccc(N2CCOCC2)nc1`, the Potency was inconclusive: 8.2 µM [activator, partial curve, poor fit].
For `CCc1ccc(-c2nc(CSCC(=O)NCc3ccc(C)cc3)c(C)o2)cc1`, the Potency was “inactive”.
In the case of `CN(CC(=O)Nc1ccc(F)cc1)CC(=O)Nc1ccc(Cl)c(S(=O)(=O)N2CCOCC2)c1`, the Potency is reported as inconclusive: 11.2 µM [inhibitor, partial curve, poor fit].
For `O=C(NC1CCCCC1)c1ccc2c(c1)N(Cc1cccc(Cl)c1)C(=O)c1ccccc1S2=O` (stereo unspecified), the Potency was inconclusive: 17.8 µM [inhibitor, single point].
In the case of `Oc1ccc(C2C(c3ccccc3)=NN=C(c3ccccc3F)N2O)c(O)c1` (stereo unspecified), the Potency is reported as inconclusive: 0.562 µM [activator, single point].
In the case of `CCc1ccc(NC(=O)c2sc3nc(C)cc(C)c3c2NC(=O)c2ccccc2OC)cc1`, the Potency is reported as “inactive”.
For `CCN(CC)CCN(C(=O)CCS(=O)(=O)c1ccccc1)c1nc2cc(C)cc(C)c2s1`, the Potency was inconclusive: 11.2 µM [inhibitor, partial curve, poor fit].
With `Cc1cccc(NS(=O)(=O)c2cccc(C(=O)NCC(c3ccco3)N3CCCCC3)c2)c1` (stereo unspecified) the Potency was inconclusive: 35.5 µM [inhibitor, single point].
With `Brc1ccccc1-c1nnc(SCc2nc3ccccc3s2)o1` the Potency was inconclusive: 0.891 µM [activator, partial curve, poor fit].
With `COc1cccc(-c2ccc(C#N)c(OC(=O)c3c(Cl)cccc3Cl)n2)c1` the Potency was inconclusive: 22.4 µM [inhibitor, partial curve].
In the case of `Cc1ccc(-n2[nH]c(C)c(C=Nc3ccc(C)cn3)c2=O)cc1`, the Potency is reported as inconclusive: 8.2 µM [inhibitor, partial curve].
For `Cc1ccc(C(N)=O)cc1S(=O)(=O)Nc1cccc(C)c1C`, the Potency was inconclusive: 6.51 µM [inhibitor, partial curve, poor fit].
With `Cc1ccc(C)c(N2CCN(C(=O)c3ccccc3Br)CC2)c1` the Potency was inconclusive: 17.8 µM [inhibitor, single point].
For `Cc1ccc(C(=O)NN2C(=O)/C(=C/c3cccn3C)SC2=S)cc1`, the Potency was inconclusive: 0.251 µM [inhibitor, partial curve, poor fit].
With `COc1ccc(C(C)=O)cc1COC(=O)C1CC(=O)N(Cc2ccccc2)C1` (stereo unspecified) the Potency was “inactive”.
For `Cn1ncc(C#N)c1/N=C/N(Cc1ccccc1)Cc1ccccc1`, the Potency was inconclusive: 22.4 µM [inhibitor, single point].
In the case of `Cc1nn(Cc2ccc(F)cc2)c2sc(C(=O)Nc3ccccc3N3CCOCC3)cc12`, the Potency is reported as inconclusive: 0.631 µM [activator, single point].
With `CN1CCc2nc3sc(C#N)c(N)c3c(-c3cccs3)c2C1` the Potency was “inactive”.
In the case of `CCCCCn1c(=O)c(C(=O)Nc2cccc(C)n2)c(O)c2ccccc21`, the Potency is reported as inconclusive: 12.6 µM [activator, single point].
With `CC(CCCc1ccccc1)NC(=O)c1nn(-c2ccc(Cl)cc2)nc1CO` (stereo unspecified) the Potency was inconclusive: 1.78 µM [inhibitor, partial curve, poor fit].
For `CCCCNc1nc2ccccc2n1CC(=O)N1CCc2ccccc2C1`, the Potency was “inactive”.
With `CCCCCc1nnc(NC(=O)C2CCCO2)s1` (stereo unspecified) the Potency was “inactive”.
With `COc1ccccc1N1CCN(C(=O)C(Sc2ccccc2)c2ccccc2)CC1` (stereo unspecified) the Potency was inconclusive: 35.5 µM [inhibitor, single point].
For `COc1ccc(S(=O)(=O)N2CCCC(C(=O)N3CCN(c4ccccc4)CC3)C2)cc1Cl` (stereo unspecified), the Potency was inconclusive: 22.4 µM [inhibitor, single point].
With `COc1cc(-c2nnc(COc3ccc4ccccc4c3)o2)cc(OC)c1OC` the Potency was inconclusive: 10 µM [inhibitor, partial curve, poor fit].
For `CC(=O)c1cccc(Nc2nc(-c3ccccc3Cl)nc3ccccc23)c1`, the Potency was inconclusive: 35.5 µM [inhibitor, single point].
With `O=C(Nc1ccn(Cc2ccccc2F)n1)c1ccc(COc2cccc(Br)c2)cc1` the Potency was inconclusive: 22.4 µM [inhibitor, single point].
In the case of `Cc1ccc(S(=O)(=O)N2CCOCC2)cc1C(=O)OCC(=O)NC1CCS(=O)(=O)C1` (stereo unspecified), the Potency is reported as inconclusive: 1.3 µM [activator, partial curve, poor fit].
In the case of `Cc1cccc(OCCn2c(-c3ccc(Cl)cc3)nc3ccccc3c2=O)c1C`, the Potency is reported as “inactive”.
For `CCc1cccc(C)c1NC(=O)CSc1nnc(C)o1`, the Potency was inconclusive: 7.94 µM [activator, partial curve, poor fit].
In the case of `c1ccc(-c2nc(-c3ccccn3)no2)cc1`, the Potency is reported as inconclusive: 1.83 µM [inhibitor, full curve, poor fit].
In the case of `COc1ccc(Nc2nc(-c3ccccc3F)nc3ccccc23)cc1OC`, the Potency is reported as inconclusive: 0.562 µM [inhibitor, full curve, poor fit].
In the case of `COc1ccc2c(c1)CCc1c(C(=O)NCc3ccco3)noc1-2`, the Potency is reported as inconclusive: 18.3 µM [inhibitor, single point].
For `C=CCn1c(SCC(=O)/C(C#N)=C(\C)N)nc2sc(CC)cc2c1=O`, the Potency was inconclusive: 23.1 µM [inhibitor, single point].
With `CC1=NN(c2ccccc2)C(=O)/C1=C\c1ccc(Oc2ccc([N+](=O)[O-])cc2[N+](=O)[O-])cc1` the Potency was inconclusive: 2.91 µM [inhibitor, partial curve, poor fit].
In the case of `CCOc1cc(/C=N/NC(=O)NN(C)c2ncc(C(F)(F)F)cc2Cl)ccc1O`, the Potency is reported as inconclusive: 12.6 µM [inhibitor, partial curve, poor fit].
With `CC(C)c1ccc(NC(=O)C(Cc2ccccc2)NS(=O)(=O)c2ccc3c(c2)oc(=O)n3C)cc1` (stereo unspecified) the Potency was “inactive”.
In the case of `O=C(OCc1nc2ccccc2s1)c1ccc(Br)o1`, the Potency is reported as inconclusive: 35.5 µM [activator, single point].
For `CCCNC(=O)Cn1cnc2sc(C(=O)NCCN(CC)CC)c(C)c2c1=O`, the Potency was “inactive”.
In the case of `CCCCCc1nc2c(c(=O)c3ccccc3n2C)c(=O)n1C1CCCCCC1`, the Potency is reported as active: 15.8 µM.
For `COc1ccc(C(=O)NC(=S)NCc2ccccc2)cc1`, the Potency was “inactive”.
In the case of `O=C(N/N=C/c1ccccc1)c1ccc(CN2C(=O)c3cccc4cccc2c34)cc1`, the Potency is reported as “inactive”.
With `O=C(Cc1ccc(Cl)cc1)Nc1ccc(-c2nnc(-c3ccco3)o2)cc1` the Potency was inconclusive: 29.1 µM [inhibitor, single point].
With `Clc1ccc(-n2nnnc2-c2cnc(-c3ccncc3)nc2-c2cccs2)cc1` the Potency was inconclusive: 32.6 µM [inhibitor, single point].
For `Cc1ccccc1Nc1nnc(SCC2CCCCO2)s1` (stereo unspecified), the Potency was inconclusive: 16.4 µM [inhibitor, single point].
In the case of `CCc1cccc(NC(=O)C(CC)n2nc(C)c3sc4ccccc4c3c2=O)c1` (stereo unspecified), the Potency is reported as “inactive”.
In the case of `Cn1cc(-c2cc3n(n2)CCC(=O)N3CCCC(=O)Nc2ccccc2F)c2ccccc21`, the Potency is reported as “inactive”.
In the case of `COc1ccc(-c2nc(S(=O)(=O)c3ccc(C)cc3)c(NCc3ccccc3)o2)cc1`, the Potency is reported as inconclusive: 5.62 µM [inhibitor, full curve].
In the case of `CCOc1ccccc1N1CCN(C(=O)c2ccc3[nH]c4c(c3c2)CCCC4)CC1`, the Potency is reported as inconclusive: 11.2 µM [inhibitor, partial curve].
For `O=S(=O)(c1cccc(-c2n[nH]c(=S)n2-c2ccccc2Cl)c1)N1CCOCC1`, the Potency was inconclusive: 3.16 µM [activator, single point].
For `N#Cc1cnc(NOCc2ccc(Cl)cc2)nc1`, the Potency was “inactive”.
For `COc1ccc(/C=C/C(=O)OCC(=O)Nc2ccc(Cl)c(S(=O)(=O)N(C)C)c2)cc1OC`, the Potency was “inactive”.
For `O=C(CSc1nnc(-c2ccccc2)c(-c2ccccc2)n1)NCc1ccco1`, the Potency was inconclusive: 11.6 µM [inhibitor, partial curve, poor fit].
With `CCOc1cc(N2CCOCC2)c(OCC)cc1NC(=O)CN1CCCC(C)C1` (stereo unspecified) the Potency was “inactive”.
For `CCc1ccc(NC(=O)c2ccc(F)c(S(=O)(=O)N3CCN(c4cc(C)ccc4C)CC3)c2)cc1`, the Potency was “inactive”.
Potency is read from the fitted curve at half-maximal effect.
